These results are taken from doi:10.1101/2022.01.04.474920.

Sequences of proteins named here, by UniProt entry; tags and fusion partners are left off.
UniProt Q9DG12: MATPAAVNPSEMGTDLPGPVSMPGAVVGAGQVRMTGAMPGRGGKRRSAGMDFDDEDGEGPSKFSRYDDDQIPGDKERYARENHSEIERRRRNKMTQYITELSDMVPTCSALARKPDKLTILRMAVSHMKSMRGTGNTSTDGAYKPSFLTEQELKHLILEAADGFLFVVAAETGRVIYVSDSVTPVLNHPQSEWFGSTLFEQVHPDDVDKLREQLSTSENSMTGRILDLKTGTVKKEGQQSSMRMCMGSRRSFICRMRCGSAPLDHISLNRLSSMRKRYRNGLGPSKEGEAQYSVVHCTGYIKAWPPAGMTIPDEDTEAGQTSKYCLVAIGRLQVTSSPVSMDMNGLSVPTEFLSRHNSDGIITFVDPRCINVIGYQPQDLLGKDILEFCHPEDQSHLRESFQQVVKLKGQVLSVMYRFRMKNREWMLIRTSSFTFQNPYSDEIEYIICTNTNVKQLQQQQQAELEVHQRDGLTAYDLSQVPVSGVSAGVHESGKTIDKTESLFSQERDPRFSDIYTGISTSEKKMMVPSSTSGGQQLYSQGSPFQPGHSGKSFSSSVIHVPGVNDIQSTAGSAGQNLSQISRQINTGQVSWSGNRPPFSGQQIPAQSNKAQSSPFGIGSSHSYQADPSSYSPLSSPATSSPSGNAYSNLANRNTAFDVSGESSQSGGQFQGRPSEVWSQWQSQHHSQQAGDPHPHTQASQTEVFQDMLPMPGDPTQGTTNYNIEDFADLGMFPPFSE

The target of this assay is zebrafish Arnt2-HA (zebrafish) (UniProt Q9DG12). The experiment in a line: co-IP.

No constants are given. Whether binding was seen depends on the method and setting. Binding seen in cells or lysates may run through a third protein. Some binding calls cover weakened binding; strength is not graded here. Where a sequence is shown, tags or fusion partners need not be part of it.

B1: zebrafish Npas4l-V5 (protein, UniProt P0DOC7 1-647)
chain: MSCGDSGIRRILRASKRFRSTKGASKARRDQMNSEIRNLRALLPISPEHRLSYLHSMSITCTYIRKSVELRGVCEESTVFSAVNGCVPQDCALQDCALQECVLQECVLQECVLQECVLQALPGFIVAFTTDGKLLYVSENVHEYLGLSMVDVLQSDSFFDMLDRSDVEAVRSVLADASPSGERWVVCRMLVSKAMRLRSSCCPLLVRIRLRDGVCVSLCRPTADRLPARNADFHTHHSADMRLASASSSVLFHLGFSADELIGRSWYELLHPDDLRHAADRHAAILAAATADAEMLIRVQCKDLSWVWMYTHASATAERDAISCSNYMISEAEAVYLQQRLSSSSSSSSSSSSSSASPQCSSVSDSSDAHSAHTLFCTPPYSPTSSQCSDFLSEGYGSLEALVDSAFCSPPYPPLFPNPCCTPTVCPPDTALDPARLCPPDSALVPAALCPPDAALDPTQLCPPGAALDPTLLCPPGAALDPTQLCLPDGALVPAVFCPPNGALVPARLCPSDAALVPAALGRPDAALVPVCRPLQVCECPLDGAVPLEDLSMFPLPQGGGSRLMPPEASPTTHTHFSYDAAQQAGIGTLAMQIHTLICSFDAYSAARHTHSHHTSCWAPEPLLDEGIIDSILRELDSTHTDAHTLI
In the case of B1, the binding entry is “binds”.
